In PubChem BioAssay AID2685 (National Center for Advancing Translational Sciences (NCATS), 2010) one finds cell number change and AC50 data, which are given here for 59 compounds.

The list shows a part of the results. The main result of the screen is listed elsewhere. These columns were measured beside it and carry no call. Most of these compounds were active or inconclusive in the main read-out, so they are no random draw. The note in brackets gives the kind of curve behind each potency; many fits are weak.

In general, AC50 refers to the concentration giving half of the maximal activity seen.

This assay in a line: qHTS Assay for Lipid Storage Modulators in Drosophila S3 Cells.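 On cell number change: cells counted by Cell Tracker Red CMTPX staining in the red channel.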 As to conditions: BODIPY lipid droplet fluorescence, 18-24 h; for cell number change: measured here: cell count max response, cells fed with added oleic acid. An outline of the steps:
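Laser-scanning cytometry quantifies lipid droplet accumulation (500–530 nm total intensity; droplet/cell object ratio) in oleic acid-fed (400 uM added) Drosophila S3 cells treated with a concentration series. 20 uM Triacsin C defined 100% inhibition.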
In general terms: Quantitative high-throughput screening tests each substance at several concentrations.

Setting [1] is: measured here: lipid fluorescence (Fed channel) AC50, cells fed with added oleic acid.
[2] abbreviates: measured here: cell number channel AC50, cells fed with added oleic acid.

`CC(CCc1ccccc1)NS(=O)(=O)c1ccccc1` (stereo not drawn): the cell number change was 5.93%.
Regarding `Cc1cc(N2CCN(C)CC2)nc2ccc(NC(=S)N3CCN(c4ccccn4)CC3)cc12`, the cell number change worked out at 12.8%. The AC50 under setting [1] is 0.0231 µM [falling, full curve, poor fit].
As to `Cc1cccc(NC(=O)COc2coc(CN3CCN(c4ccccc4)CC3)cc2=O)c1`, the cell number change was 58%. Under setting [2], the half-maximal activity concentration (AC50) is 7.31 µM [rising, partial curve].
`COC(=O)c1cn(Cc2ccccn2)c(=O)c2ccccc12`: the cell number change is 19.5%. Further, under setting [1], the AC50 was 29.1 µM [rising, single point].
Turning to `Cc1ccc(C2=C/C(=C\c3cccnc3)C(=O)O2)cc1`, the cell number change was found to be 1.33%. Further, the AC50 under setting [1] is 29.1 µM [falling, single point].
As for `COc1cc(NC(=O)COC(=O)/C=C/c2ccc(Cl)cc2Cl)cc(OC)c1`, the cell number change amounted to 30.9%.
Consider `CC1=NN(c2ccccc2)C(=O)/C1=C\c1cc(C)n(C)c1C`, for which the cell number change is 1.69%. Moreover, the AC50 under setting [1] is 23.1 µM [falling, single point].
As to `CC(C)(c1cc(Br)c(O)c(Br)c1)c1cc(Br)c(O)c(Br)c1`, the cell number change turned out to be 7.83%. Moreover, the AC50 under setting [2] is 0.164 µM [falling, full curve].
Take `COc1cnc(SCc2ccc(Cl)c(Cl)c2)nc1Cl`: the cell number change came to 45.1%. The AC50 under setting [2] was 14.6 µM [rising, partial curve, poor fit].
`CS(=O)(=O)N(CC(=O)Nc1cccc(F)c1)Cc1ccccc1`: the AC50 under setting [2] was 6.51 µM [falling, single point].
As for `O=C(OCn1ncc(Cl)c(Cl)c1=O)c1ccc(C(F)(F)F)cc1`, the cell number change is -80.5%. Also, the concentration at half-maximal activity (AC50) under setting [2] was 18.4 µM [falling, partial curve]. Also, the AC50 under setting [1] was 11.6 µM [falling, partial curve].
On to `CCN(CC)S(=O)(=O)c1cc(C(=O)OCC(=O)c2ccc3c(c2)NC(=O)CO3)ccc1F`, for which the cell number change was -20.3%.
For the compound `CCOC(=O)c1ccc(-c2nnc(-c3ccc(Cl)cc3Cl)o2)cc1`, the cell number change was -1.62%. Also, under setting [1], the AC50 was 0.58 µM [falling, single point].
`C/C(=N\NC(=S)NCc1ccccc1)c1ccco1`: the cell number change is -2.46%. Also, the AC50 under setting [2] was 6.51 µM [rising, single point]. The AC50 under setting [1] is 1.3 µM [falling, full curve, poor fit].
For `COC(=O)CSc1nnc(-c2c[nH]c3ccccc23)o1`, the cell number change was determined as 11.7%.
Consider `O=C(CNC(=O)c1ccc(Br)o1)NNC(=O)c1ccc(Br)cc1`, for which the cell number change was -4.19%. Moreover, the AC50 under setting [1] was 2.31 µM [rising, single point].
For the compound `COc1ccc(-c2c(-c3ccc(O)cc3O)n[nH]c2C)cc1OC`, the AC50 by setting is: under setting [2], 0.184 µM [rising, partial curve, poor fit]; under setting [1], 0.82 µM [rising, full curve, poor fit].
`Cc1ccc(-n2c3c(c(=O)[nH]c2=S)C(C(F)(F)F)(C(F)(F)F)NC(=O)N3)cc1`: the cell number change came to 34.8%. The AC50 under setting [2] is 29.1 µM [rising, single point]. Moreover, the AC50 under setting [1] is 0.082 µM [rising, partial curve].
On to `CCN(CC(=O)Nc1ccc(S(=O)(=O)N2CCCC2)cc1)CC(=O)Nc1cccc(OC)c1`, for which the cell number change is -14.6%. Under setting [1], the AC50 was 4.11 µM [falling, single point].
As for `O=C(CCCl)N1CCN(c2nc(-c3ccccc3)cs2)CC1`, the cell number change is -13.2%.
With `CC(=O)c1c(C)[nH]c(C(=O)CSc2nnc(-c3ccco3)o2)c1C`, the cell number change came to 17%. For the same compound, under setting [1], the AC50 was 0.0731 µM [rising, full curve, poor fit].
Take `COc1ccc(CN=C2Nc3ccccc3CS2)cc1`: the cell number change is -15.3%. Also, under setting [1], the concentration at half-maximal activity (AC50) was 2.91 µM [falling, single point].
For `CC(C)Oc1ccc(S(=O)(=O)N2CCOCC2)cc1NC(=O)C1=COCCO1`, the cell number change amounted to 56.9%. Further, the AC50 under setting [2] is 6.51 µM [falling, single point]. Also, the AC50 under setting [1] is 6.51 µM [falling, single point].
As to `Cc1oc(-c2ccc(Cl)cc2)nc1CN1CCCC(C(=O)NC2CC2)C1` (stereo not drawn), the cell number change was determined as 2.8%. Besides, the AC50 under setting [1] is 3.26 µM [rising, single point].
For the compound `CC(=O)c1c(C)[nH]c(C(=O)CSc2nnc(-c3ccc(Cl)cc3)n2CC2CCCO2)c1C` (stereo not drawn), the AC50 was 0.461 µM [rising, full curve] under setting [2] and 0.411 µM [rising, partial curve, poor fit] under setting [1].
Consider `Cc1cnccc1CN(C)Cc1cn(C)nc1-c1cccc(Cl)c1`, for which the cell number change is 15.9%.
Regarding `CNC(=S)N(CCc1ccc(OC)c(OC)c1)Cc1cc2c(C)cc(C)cc2[nH]c1=O`, the cell number change is -32.4%. For the same compound, the AC50 under setting [1] is 9.2 µM [rising, partial curve].
In the case of `CCCN1CCN(CCCNC(=O)c2cc3c(=O)n(C)c4ccccc4c3n2C)CC1`, the cell number change is 3.1%. The AC50 under setting [1] was 6.51 µM [rising, partial curve].
`CC1CCCN(C(=O)c2cccc(S(=O)(=O)N3CCCc4ccccc43)c2)C1` (stereo not drawn): the cell number change was determined as 29.9%. The AC50 under setting [1] is 6.51 µM [rising, single point].
For `COc1ccc(C2OC34CCCCC3C(C#N)(C#N)C2(C#N)C(=N)O4)cc1` (stereo not drawn), the cell number change amounted to 23.9%. Under setting [1], the AC50 was 23.1 µM [rising, single point].
On to `O=C(N/N=C/c1ccoc1)c1ccc(Cl)cc1Cl`, for which the AC50 by setting is: under setting [2], 3.26 µM [rising, single point]; under setting [1], 11.6 µM [falling, single point].
With `COc1ccccc1CCNC(=O)CSc1nnc2ccc(-c3cccnc3)nn12`, the AC50 under setting [2] was 0.00461 µM [falling, full curve, poor fit].
On the same count and under the same terms, next, `C/C(=N\NC(=O)c1cc(C)oc1C)c1ccc(N2CCOCC2)cc1`: 6.51 µM [rising, single point].
In the case of `O=C(CC1Oc2ccccc2NC1=O)NCc1ccccc1` (stereo not drawn), the AC50 was 0.651 µM [falling, single point] under setting [2] and 0.731 µM [falling, single point] under setting [1].
For the compound `CCOCCCNC(=O)CC1Oc2ccc(C)cc2NC1=O` (stereo not drawn), the cell number change was -1.76%. In addition, the AC50 under setting [2] was 0.58 µM [falling, full curve, poor fit]. Under setting [1], the AC50 is 10.3 µM [falling, partial curve].
On to `Cc1cc(C)c(S(=O)(=O)N2CCCOC2CNC(=O)C(=O)NCCC2=CCCCC2)c(C)c1` (stereo not drawn), for which the cell number change was -3.61%. Further, the AC50 under setting [1] was 0.651 µM [falling, single point].
For the compound `Clc1cccc(-c2ccc3ncnc(NCc4cccs4)c3c2)c1`, the cell number change was found to be 18.2%. In addition, the AC50 under setting [1] was 20.6 µM [rising, partial curve, poor fit].
Consider `O=C(N/N=C/c1cc(Cl)cc([N+](=O)[O-])c1O)C(O)(c1ccccc1)c1ccccc1`, for which the cell number change was determined as 0.702%.
Turning to `COc1ccc(OC)c(C(c2nnnn2C2CCCC2)N2CCN(c3ccc(F)cc3)CC2)c1` (stereo not drawn), the cell number change was -4.45%. The AC50 under setting [1] was 6.51 µM [falling, single point].
For the compound `CCOc1ccc(CCNC(=O)CN2C(=O)NC3(CCCCC3C)C2=O)cc1OCC` (stereo not drawn), the cell number change is -39.4%. Also, the AC50 under setting [2] is 8.2 µM [falling, partial curve, poor fit]. Moreover, the AC50 under setting [1] was 10.3 µM [falling, partial curve, poor fit].
Regarding `Cc1cc(-c2ccc(Cl)cc2)n2nc(N)nc2n1`, the cell number change was determined as 11.8%. Also, under setting [1], the AC50 is 16.4 µM [rising, single point].
For `CCC(=O)Nc1cccc(NC(=O)CSc2nc3c(c(=O)n(C)c(=O)n3C)n2C)c1`, the cell number change turned out to be 55.1%. Also, under setting [2], the AC50 is 32.6 µM [rising, single point].
For the compound `O=C1CCc2cc(S(=O)(=O)N3CCN(c4cccc(C(F)(F)F)c4)CC3)ccc2N1`, the cell number change was -42.9%. Also, the AC50 under setting [2] was 20.6 µM [falling, single point]. Moreover, under setting [1], the AC50 was 20.6 µM [falling, single point].
For `O=C(O)C1=C[C@H](c2cccs2)C[C@H](OCc2ccc(CO)cc2)O1`, the cell number change is 29.2%. Besides, the AC50 under setting [1] is 6.51 µM [rising, partial curve].
For `O=C(c1ccc(F)cc1)C1CCN(C(=O)NC2CCCCC2)CC1`, the cell number change is -24.2%.
Turning to `Nn1c(Cc2cccc3ccccc23)nnc1SCCOc1ccc(F)cc1`, the cell number change is -3.44%. Also, the AC50 under setting [1] is 3.26 µM [rising, single point].
For the compound `COc1ccccc1C1=NC(c2ccc(F)cc2)N=C1C` (stereo not drawn), the cell number change came out at 22.6%.
In the case of `O=C(/C=C/c1ccccc1)NC(=S)Nc1ccc2c3c(cccc13)CC2`, the cell number change came out at 2.01%. Moreover, under setting [1], the AC50 is 2.91 µM [rising, full curve].
Consider `Cc1cc(C)c2nc(SCC(=O)Nc3ccc(S(=O)(=O)N4CCCC4)cc3)c(C)cc2c1`, for which the cell number change was found to be 7.01%. Also, the AC50 under setting [1] was 3.66 µM [rising, partial curve].
As to `Cc1cc(C)c2nc(N3CCC(C(=O)NCCCN4CCCCC4)CC3)sc2c1`, the cell number change is -24%. Further, the AC50 under setting [2] was 3.26 µM [falling, full curve, poor fit].
For the compound `COc1ccccc1CNC(=O)C(NS(=O)(=O)c1ccc2c(c1)OCCO2)C(C)C` (stereo not drawn), the cell number change stood at 2.36%. In addition, the AC50 under setting [1] is 25.9 µM [falling, single point].
As for `CC(C)(C)C1CCc2c(sc(NC(=O)c3cccs3)c2C(=O)N2CCCCC2)C1` (stereo not drawn), the cell number change was -20.7%.
In the case of `Fc1ccc(-n2nnnc2-c2cnc(-c3cccs3)nc2C(F)(F)F)cc1`, the cell number change is -32.2%. In addition, under setting [2], the AC50 was 5.17 µM [falling, full curve, poor fit]. The half-maximal activity concentration (AC50) under setting [1] was 4.61 µM [falling, full curve, poor fit].
Consider `C/C(O)=C(/C=NCC(=O)O)C(=O)Nc1nccs1`, for which the cell number change was 11.5%. Moreover, the half-maximal activity concentration (AC50) under setting [2] was 1.03 µM [rising, full curve, poor fit]. Further, the AC50 under setting [1] was 1.16 µM [rising, full curve, poor fit].
For the compound `O=C(O)COc1ccccc1/C=N/NC(=O)c1ccc(F)cc1`, the cell number change is -16.6%. In addition, under setting [2], the half-maximal activity concentration (AC50) is 0.00517 µM [falling, full curve, poor fit].
On to `COc1cc(NC(=O)c2cc3c(C)nc4ccccc4c3o2)cc(OC)c1OC`, for which the cell number change is -24.9%. In addition, the concentration at half-maximal activity (AC50) under setting [1] is 0.82 µM [rising, full curve, poor fit].
For `COc1ccc(CC(=O)N2CCN(c3ccccc3OC)CC2)cc1`, the cell number change is 6.15%. Moreover, the AC50 under setting [1] is 0.517 µM [rising, partial curve, poor fit].
`Clc1ccc(CONc2ncnc3nonc23)c(Cl)c1`: the cell number change was -33.4%. Moreover, the concentration at half-maximal activity (AC50) under setting [2] was 29.1 µM [falling, single point].
For `CCCc1nc(SCC(=O)c2ccc(OC)cc2)c2c(=O)n(C)c(=O)n(C)c2n1`, the AC50 under setting [1] is 0.58 µM [falling, single point].
